Data reported in patent US20250085287A1 (ADICET THERAPEUTICS, published 2025).
Results are given in words; binding and its absence hold for the method and conditions named. Some results given as binding are weak or reduced against the parent protein; the word gives no strength.

Amino acid sequences for entries named in this document (tags omitted). Residues count along the entry.
UniProt P51654, residues 25-554: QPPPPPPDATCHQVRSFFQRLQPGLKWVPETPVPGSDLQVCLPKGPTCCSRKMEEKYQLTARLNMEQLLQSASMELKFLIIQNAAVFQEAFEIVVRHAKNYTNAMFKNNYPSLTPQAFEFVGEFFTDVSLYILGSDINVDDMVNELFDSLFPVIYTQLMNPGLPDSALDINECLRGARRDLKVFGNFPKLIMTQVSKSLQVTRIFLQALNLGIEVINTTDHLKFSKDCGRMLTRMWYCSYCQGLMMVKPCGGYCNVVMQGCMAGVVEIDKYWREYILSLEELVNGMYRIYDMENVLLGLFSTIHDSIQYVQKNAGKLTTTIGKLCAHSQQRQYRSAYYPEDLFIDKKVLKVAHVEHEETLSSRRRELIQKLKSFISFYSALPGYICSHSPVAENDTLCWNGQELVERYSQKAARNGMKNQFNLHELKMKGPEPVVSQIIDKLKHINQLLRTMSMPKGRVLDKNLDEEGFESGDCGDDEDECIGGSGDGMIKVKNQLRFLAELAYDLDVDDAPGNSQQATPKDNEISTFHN

Tests used:
[1] = target: soluble native human GPC3 from tumor cell line supernatants (HepG2, NCI-H661, Hep3B) (human) (UniProt P51654); assay: western blot of tumor cell line supernatants
[2] = target: soluble native human GPC3 from tumor cell line supernatants (HepG2, NCI-H661, Hep3B) (human) (UniProt P51654); assay: western blot of concentrated supernatants of HepG2, NCI-H661 and Hep3B
[3] = target: soluble native human GPC3 from tumor cell line supernatants (HepG2, NCI-H661, Hep3B) (human) (UniProt P51654); assay: western blot of concentrated serum-free supernatants of HepG2, NCI-H661 and Hep3B

Measured: binding

B1: 204 monoclonal antibody (mouse anti-human GPC3) (antibody, IgG2b, V domains shown)
VH: EVQLQQSGPELVKPGASVKISCKTSGYTFTEYAMHWVKQSHGKSLEWIGGINPNNGVTTYNQRFKGKATLTVDKSSSTAYMELRSLTSEDSAVYYCARGLLWYAYWGQGTLVTVSA
VL: DIKMTQSPSSMYASLGERVTITCKASQDINSYLSWFQQKPGKSPKTLIYRANRLVDGVPSRFSGSGSGQDYSLTISSLEYEDMGIYYCLQYDEFPLTFGAGTKLELK
notes: also called GPC.204
binds: all assays above
